Assays:
Type in all cases: cell-based, human
SF-268 = assay: NCI 60 cell line screen (SRB), CNS Cancer
Source text: (§1) The operation of this screen utilizes 60 different human tumor cell lines, representing leukemia, melanoma and cancers of the lung, colon, brain, ovary, breast, prostate, and kidney. The aim is to prioritize for further evaluation, synthetic compounds or natural product samples showing selective growth inhibition or cell killing of particular tumor cell lines. This screen is unique in that the complexity of a 60 cell line dose response produced by a given compound results in a biological response pattern which can be utilized in pattern recognition algorithms. Using these algorithms, it is possible to assign a putative mechanism of action to a test compound, or to determine that the response pattern is unique and not similar to that of any of the standard prototype compounds included in the NCl database (see DTP Overview tab). In addition, following characterization of various cellular molecular targets in the 60 cell lines, it may be possible to select compounds most likely to interact with a specific molecular target.
(§2) The human tumor cell lines of the cancer screening panel are grown in RPMI 1640 medium containing 5% fetal bovine serum and 2 mM L-glutamine. For a typical screening experiment, cells are inoculated into 96 well microtiter plates in 100 μL at plating densities ranging from 5,000 to 40,000 cells/well depending on the doubling time of individual cell lines. After cell inoculation, the microtiter plates are incubated at 37° C., 5% CO2, 95% air and 100% relative humidity for 24 h prior to addition of experimental drugs.
(§3) After 24 h, two plates of each cell line are fixed in situ with TCA, to represent a measurement of the cell population for each cell line at the time of drug addition (Tz). Experimental drugs are solubilized in dimethyl sulfoxide at 400-fold the desired final maximum test concentration and stored frozen prior to use. At the time of drug addition, an aliquot of frozen concentrate is thawed and diluted to twice the desired final maximum test concentration with complete medium containing 50 μg/ml gentamicin. Additional four, 10-fold or ½ log serial dilutions are made to provide a total of five drug concentrations plus control. Aliquots of 100 μl of these different drug dilutions are added to the appropriate microtiter wells already containing 100 μl of medium, resulting in the required final drug concentrations.
(§4) Following drug addition, the plates are incubated for an additional 48 h at 37° C., 5% CO2, 95% air, and 100% relative humidity. For adherent cells, the assay is terminated by the addition of cold TCA. Cells are fixed in situ by the gentle addition of 50 μl of cold 50% (w/v) TCA (final concentration, 10% TCA) and incubated for 60 minutes at 4° C. The supernatant is discarded, and the plates are washed five times with tap water and air dried. Sulforhodamine B (SRB) solution (100 μl) at 0.4% (w/v) in 1% acetic acid is added to each well, and plates are incubated for 10 minutes at room temperature. After staining, unbound dye is removed by washing five times with 1% acetic acid and the plates are air dried. Bound stain is subsequently solubilized with 10 mM trizma base, and the absorbance is read on an automated plate reader at a wavelength of 515 nm. For suspension cells, the methodology is the same except that the assay is terminated by fixing settled cells at the bottom of the wells by gently adding 50 μl of 80% TCA (final concentration, 16% TCA). Using the seven absorbance measurements [time zero, (Tz), control growth, (C), and test growth in the presence of drug at the five concentration levels (Ti)], the percentage growth is calculated at each of the drug concentrations levels. Percentage growth inhibition is calculated as: [(Ti−Tz)/(C−Tz)]×100 for concentrations for which Ti>/=Tz [(Ti−Tz)/Tz]×100 for concentrations for which Ti<Tz.
(§5) Three dose response parameters are calculated for each experimental agent. […]

SNB-19 = assay: NCI 60 cell line screen (SRB), CNS Cancer
Source text: as §1, §2, §3, §4, §5

SNB-75 = assay: NCI 60 cell line screen (SRB), CNS Cancer
Source text: as §1, §2, §3, §4, §5

U251 = assay: NCI 60 cell line screen (SRB), CNS Cancer
Source text: as §1, §2, §3, §4, §5

OVCAR-5 = assay: NCI 60 cell line screen (SRB), Ovarian Cancer
Source text: as §1, §2, §3, §4, §5

SK-OV-3 = assay: NCI 60 cell line screen (SRB), Ovarian Cancer
Source text: as §1, §2, §3, §4, §5

786-0 = assay: NCI 60 cell line screen (SRB), Renal Cancer
Source text: as §1, §2, §3, §4, §5

ACHN = assay: NCI 60 cell line screen (SRB), Renal Cancer
Source text: as §1, §2, §3, §4, §5

CAKI-1 = assay: NCI 60 cell line screen (SRB), Renal Cancer
Source text: as §1, §2, §3, §4, §5

SN12C = assay: NCI 60 cell line screen (SRB), Renal Cancer
Source text: as §1, §2, §3, §4, §5

TK-10 = assay: NCI 60 cell line screen (SRB), Renal Cancer
Source text: as §1, §2, §3, §4, §5

UO-31 = assay: NCI 60 cell line screen (SRB), Renal Cancer
Source text: as §1, §2, §3, §4, §5

COc1cccc(CCNC(=O)CC(c2ccccc2)(c2ccccc2)c2ccccc2)c1 [Compound Z3] was tested, and the “Mean Optical Densities” value (SF-268; SF-268, Log10 Concentration −4.0) was 0.896, the “Mean Optical Densities” value (SF-268; SF-268, Log10 Concentration −5.0) was 1.039 and the “Mean Optical Densities” value (SF-268; SF-268, Log10 Concentration −6.0) was 1.373. The “Mean Optical Densities” value (SF-268; SF-268, Log10 Concentration −7.0) was 1.468, the “Mean Optical Densities” value (SF-268; SF-268, Log10 Concentration −8.0) was 1.402 and the “Mean Optical Densities” value (SNB-19; SNB-19, Log10 Concentration −4.0) was 0.857. For the same compound, the “Mean Optical Densities” value (SNB-19; SNB-19, Log10 Concentration −5.0) was 1.195, the “Mean Optical Densities” value (SNB-19; SNB-19, Log10 Concentration −6.0) was 1.195 and the “Mean Optical Densities” value (SNB-19; SNB-19, Log10 Concentration −7.0) was 1.306. The “Mean Optical Densities” value (SNB-19; SNB-19, Log10 Concentration −8.0) was 1.233, the “Mean Optical Densities” value (SNB-75; SNB-75, Log10 Concentration −4.0) was 0.646 and the “Mean Optical Densities” value (SNB-75; SNB-75, Log10 Concentration −5.0) was 0.714. The “Mean Optical Densities” value (SNB-75; SNB-75, Log10 Concentration −6.0) was 0.700, the “Mean Optical Densities” value (SNB-75; SNB-75, Log10 Concentration −7.0) was 0.711 and the “Mean Optical Densities” value (SNB-75; SNB-75, Log10 Concentration −8.0) was 0.639. The “Mean Optical Densities” value (U251; U251, Log10 Concentration −4.0) was 0.308, the “Mean Optical Densities” value (U251; U251, Log10 Concentration −5.0) was 0.506 and the “Mean Optical Densities” value (U251; U251, Log10 Concentration −6.0) was 0.882. For the same compound, the “Mean Optical Densities” value (U251; U251, Log10 Concentration −7.0) was 0.946, the “Mean Optical Densities” value (U251; U251, Log10 Concentration −8.0) was 0.899 and the “Mean Optical Densities” value (OVCAR-5; OVCAR-5, Log10 Concentration −4.0) was 0.438. The “Mean Optical Densities” value (OVCAR-5; OVCAR-5, Log10 Concentration −5.0) was 0.559, the “Mean Optical Densities” value (OVCAR-5; OVCAR-5, Log10 Concentration −6.0) was 0.658 and the “Mean Optical Densities” value (OVCAR-5; OVCAR-5, Log10 Concentration −7.0) was 0.671. The “Mean Optical Densities” value (OVCAR-5; OVCAR-5, Log10 Concentration −8.0) was 0.679, the “Mean Optical Densities” value (SK-OV-3; SK-OV-3, Log10 Concentration −4.0) was 0.877 and the “Mean Optical Densities” value (SK-OV-3; SK-OV-3, Log10 Concentration −5.0) was 0.862. For the same compound, the “Mean Optical Densities” value (SK-OV-3; SK-OV-3, Log10 Concentration −6.0) was 0.936, the “Mean Optical Densities” value (SK-OV-3; SK-OV-3, Log10 Concentration −7.0) was 0.944 and the “Mean Optical Densities” value (SK-OV-3; SK-OV-3, Log10 Concentration −8.0) was 0.906. The “Mean Optical Densities” value (786-0; 786-0, Log10 Concentration −4.0) was 0.434, the “Mean Optical Densities” value (786-0; 786-0, Log10 Concentration −5.0) was 0.749 and the “Mean Optical Densities” value (786-0; 786-0, Log10 Concentration −6.0) was 0.998. The “Mean Optical Densities” value (786-0; 786-0, Log10 Concentration −7.0) was 1.084, the “Mean Optical Densities” value (786-0; 786-0, Log10 Concentration −8.0) was 1.004 and the “Mean Optical Densities” value (ACHN; Log10 Concentration −4.0) was 0.373. For the same compound, the “Mean Optical Densities” value (ACHN; Log10 Concentration −5.0) was 0.511, the “Mean Optical Densities” value (ACHN; Log10 Concentration −6.0) was 0.660 and the “Mean Optical Densities” value (ACHN; Log10 Concentration −7.0) was 0.711. For the same compound, the “Mean Optical Densities” value (ACHN; Log10 Concentration −8.0) was 0.681, the “Mean Optical Densities” value (CAKI-1; CAKI-1, Log10 Concentration −4.0) was 0.730 and the “Mean Optical Densities” value (CAKI-1; CAKI-1, Log10 Concentration −5.0) was 0.901. The “Mean Optical Densities” value (CAKI-1; CAKI-1, Log10 Concentration −6.0) was 1.184, the “Mean Optical Densities” value (CAKI-1; CAKI-1, Log10 Concentration −7.0) was 1.301 and the “Mean Optical Densities” value (CAKI-1; CAKI-1, Log10 Concentration −8.0) was 1.272. The “Mean Optical Densities” value (SN12C; Log10 Concentration −4.0) was 0.676, the “Mean Optical Densities” value (SN12C; Log10 Concentration −5.0) was 0.376 and the “Mean Optical Densities” value (SN12C; Log10 Concentration −6.0) was 0.492. The “Mean Optical Densities” value (SN12C; Log10 Concentration −7.0) was 0.529, the “Mean Optical Densities” value (SN12C; Log10 Concentration −8.0) was 0.532 and the “Mean Optical Densities” value (TK-10; TK-10, Log10 Concentration −4.0) was 0.963. The “Mean Optical Densities” value (TK-10; TK-10, Log10 Concentration −5.0) was 1.214, the “Mean Optical Densities” value (TK-10; TK-10, Log10 Concentration −6.0) was 1.331 and the “Mean Optical Densities” value (TK-10; TK-10, Log10 Concentration −7.0) was 1.321. For the same compound, the “Mean Optical Densities” value (TK-10; TK-10, Log10 Concentration −8.0) was 1.295, the “Mean Optical Densities” value (UO-31; UO-31, Log10 Concentration −4.0) was 0.805 and the “Mean Optical Densities” value (UO-31; UO-31, Log10 Concentration −5.0) was 0.927. For the same compound, the “Mean Optical Densities” value (UO-31; UO-31, Log10 Concentration −6.0) was 1.408, the “Mean Optical Densities” value (UO-31; UO-31, Log10 Concentration −7.0) was 1.527 and the “Mean Optical Densities” value (UO-31; UO-31, Log10 Concentration −8.0) was 1.411.
